SMILES strings stand for the structures. Counter-ions that a name gives are not always drawn. ± gives the standard deviation of the averaged measurements. The list shows a part of the results. The data scatter; read single values as rough.

The experiment has as its system hAMSC donor 1. Briefly: transfection efficiency (EGFP+ cells / Hoechst count) fold change vs vehicle control (ratio); hAMSC are human adipose-derived mesenchymal stem cells given an EGFP-luciferase plasmid by lipofection; higher = enhanced transfection. As to conditions: priming compound concentration 1.7 µM.
Take `CN(CCOc1ccc(CC2SC(=O)NC2=O)cc1)c1ccccn1` (centres undefined) [Rosiglitazone maleate]: the transfection efficiency worked out at 1.89 ± 0.18.

For `C[C@](N)(Cc1ccc(O)cc1)C(=O)O` [alpha-Methyl-L-tyrosine], the transfection efficiency worked out at 0.855 ± 0.25.

`COc1cc(OC)c(C(=O)CCCN2CCCC2)c(OC)c1` [Buflomedil hydrochloride]: the transfection efficiency turned out to be 1.45 ± 0.54.

Turning to `COCCOC(=O)C1=C(C)NC(C)=C(C(=O)OC(C)C)C1c1cccc([N+](=O)[O-])c1` (centres undefined) [Nimodipine], the transfection efficiency was found to be 1.24 ± 0.69.

In the case of `O=C(CCCN1CC=C(n2c(=O)[nH]c3ccccc32)CC1)c1ccc(F)cc1` [Droperidol], the transfection efficiency was 1.49 ± 0.61.

`CN1[C@@H]2CC[C@H]1C[C@@H](OC(=O)c1c[nH]c3ccccc13)C2` [Tropisetron hydrochloride]: the transfection efficiency stood at 1.65 ± 0.48.

Take `CN1[C@@H](CC(=O)c2ccccc2)CCC[C@H]1C[C@H](O)c1ccccc1` [Lobeline hydrochloride]: the transfection efficiency stood at 0.869 ± 0.14.

Consider `CN(C)CCCC1(c2ccc(F)cc2)OCc2cc(C#N)ccc21` (centres undefined) [Citalopram hydrobromide], for which the transfection efficiency is 0.66 ± 0.2.

Consider `CN(C)CCc1c[nH]c2ccc(Cn3cncn3)cc12` [Rizatriptan benzoate], for which the transfection efficiency came out at 1.27 ± 0.32.

Regarding `Nc1ncn([C@@H]2O[C@H](CO)[C@@H](O)[C@H]2O)c(=O)n1` [5-Azacytidine], the transfection efficiency is 1.08 ± 0.073.

As for `O=C(O)CCc1nc(-c2ccccc2)c(-c2ccccc2)o1` [Oxaprozin], the transfection efficiency came to 0.952 ± 0.17.

`CN1CC(=O)N2[C@H](c3ccc4c(c3)OCO4)c3[nH]c4ccccc4c3C[C@@H]2C1=O` [Tadalafil]: the transfection efficiency was found to be 1.17 ± 0.14.

In the case of `O=c1c(O[C@@H]2O[C@H](CO)[C@@H](O)[C@H](O)[C@H]2O)c(-c2ccc(O)c(O)c2)oc2cc(O)cc(O)c12` [Isoquercitrin], the transfection efficiency was determined as 0.871 ± 0.38.

Take `CN(C)[C@@H]1C(O)=C(C(N)=O)C(=O)[C@@]2(O)C(O)=C3C(=O)c4c(O)ccc(Cl)c4[C@@H](O)[C@H]3C[C@@H]12` [Demeclocycline]: the transfection efficiency was determined as 0.974 ± 0.48.

As to `OCCN1CCN(CCCN2c3ccccc3Sc3ccc(C(F)(F)F)cc32)CC1` [Fluphenazine dihydrochloride], the transfection efficiency came to 0.815 ± 0.059.

As for `CCN(CC)CCOc1ccc(C(=C(Cl)c2ccccc2)c2ccccc2)cc1` [Clomifene citrate], the transfection efficiency came to 1.3 ± 0.33.

In the case of `N#Cc1ccc(C(c2ccc(C#N)cc2)n2cncn2)cc1` [Letrozole], the transfection efficiency amounted to 0.991 ± 0.54.

On to `COc1cc([C@@H]2c3cc4c(cc3[C@@H](O[C@@H]3O[C@@H]5CO[C@@H](C)O[C@H]5[C@H](O)[C@H]3O)[C@H]3COC(=O)[C@H]23)OCO4)cc(OC)c1O` [Etoposide], for which the transfection efficiency stood at 1.11 ± 0.27.

Take `C[C@]12C[C@H](O)[C@H]3[C@@H](CCC4=CC(=O)CC[C@@]43C)[C@@H]1CC[C@@H]2C(=O)CO` [Corticosterone]: the transfection efficiency was 1.01 ± 0.41.

In the case of `CCN1CCCC1CNC(=O)c1cc(S(=O)(=O)CC)c(N)cc1OC` (centres undefined) [Amisulpride], the transfection efficiency stood at 1.01 ± 0.39.

For the molecule `CN(C)CC[C@@H](c1ccc(Br)cc1)c1ccccn1` [Dexbrompheniramine maleate], the transfection efficiency came to 1.63 ± 0.3.

As to `CC1=C(C/C=C(\C)CCC[C@H](C)CCC[C@H](C)CCCC(C)C)C(=O)c2ccccc2C1=O` [Phylloquinone], the transfection efficiency turned out to be 0.956 ± 0.35.

Consider `C[C@H](CS)C(=O)N1CCC[C@H]1C(=O)O` [Captopril], for which the transfection efficiency amounted to 1.13 ± 0.46.

For the molecule `c1ccc2c(CC3=NCCN3)cccc2c1` [Naphazoline hydrochloride], the transfection efficiency was 0.7 ± 0.28.

For `C[C@H]1O[C@@H](O[C@H]2[C@@H](O)C[C@H](O[C@H]3[C@@H](O)C[C@H](O[C@H]4CC[C@@]5(C)[C@H](CC[C@@H]6[C@@H]5C[C@@H](O)[C@]5(C)[C@@H](C7=CC(=O)OC7)CC[C@]65O)C4)O[C@@H]3C)O[C@@H]2C)C[C@H](O)[C@@H]1O` [Digoxin], the transfection efficiency turned out to be 1.23 ± 0.28.

Consider `CC#C[C@]1(O)CC[C@H]2[C@@H]3CCC4=CC(=O)CCC4=C3[C@@H](c3ccc(N(C)C)cc3)C[C@@]21C`, for which the transfection efficiency is 1.16 ± 0.41.

As for `COc1ccccc1N1CCN(CC(O)COc2cccc3ccccc23)CC1` (centres undefined) [Naftopidil], the transfection efficiency came to 0.876 ± 0.32.

Take `CN1CCN(c2nc3cc(C(F)(F)F)ccc3n3cccc23)CC1`: the transfection efficiency came to 0.908 ± 0.36.

As for `CC(C)[C@H](N)C(=O)OCCOCn1cnc2c(=O)nc(N)[nH]c21` [Valaciclovir hydrochloride], the transfection efficiency was 0.725 ± 0.058.

Turning to `O=c1[nH]cc(F)c(=O)[nH]1` [5-Fluorouracil], the transfection efficiency is 0.674 ± 0.21.

As to `CC1(C)S[C@@H]2[C@H](NC(=O)[C@H](N)c3ccc(O)cc3)C(=O)N2[C@H]1C(=O)O` [Amoxicillin], the transfection efficiency is 0.662 ± 0.23.

Consider `CN1CCC[C@H]1c1cccnc1` [Nicotine], for which the transfection efficiency was 0.708 ± 0.33.

Turning to `CC1(C)O[C@@H]2[C@@H](CO[C@@]3(COS(N)(=O)=O)OC(C)(C)O[C@@H]23)O1` [Topiramate], the transfection efficiency is 1 ± 0.43.

In the case of `Nc1ncnc2c1ncn2[C@@H]1O[C@H](CO)C[C@@H]1O` [3'-Deoxydenosine], the transfection efficiency came out at 1.05 ± 0.13.

For the molecule `O=C1c2c(O)cc(O)cc2O[C@H](c2ccc(O)c(O)c2)[C@H]1O` (racemic) [Taxifolin-(+/-)], the transfection efficiency was 1.09 ± 0.28.

Turning to `O=C(c1ccccc1)c1ccc2n1CCC2C(=O)O` (centres undefined) [Ketorolac tromethamine], the transfection efficiency is 1.14 ± 0.22.

On to `CC(=O)N[C@H]1[C@H]([C@H](O)[C@H](O)CO)OC(C(=O)O)=C[C@@H]1NC(=N)N` [Zanamivir hydrate], for which the transfection efficiency worked out at 0.872 ± 0.13.

For the molecule `CCOc1cc(CC(=O)N[C@@H](CC(C)C)c2ccccc2N2CCCCC2)ccc1C(=O)O` [Repaglinide], the transfection efficiency turned out to be 1.17 ± 0.026.

Consider `CCn1cc(C(=O)O)c(=O)c2cc(F)c(N3CCN(C)CC3)cc21` [Pefloxacin mesylate], for which the transfection efficiency came to 1.03 ± 0.32.

For the origin of these results see the supplement of paper PMC7238544.
